Patent US8268823B2, “Medical use of triazine derivatives” (University of Greenwich, priority 2006, dated 2012)

System: sodium channel
Assay: veratrine-evoked uptake of [14C]guanidine into rat forebrain synaptosomes ([14C]guanidine flux)
Type: biochemical
Details: Table 8
Method: The screening strategy is designed to select compounds with appropriate sodium channel blocking activity and low side effect liability. To this end all compounds are processed through the primary sodium channel assay (veratrine-evoked uptake of [^14C]guanidine into rat forebrain synaptosomes) and IC50 values computed from generated concentration-effect curves.
Synaptosomes (heavy and light mitochondrial fraction containing synaptosomes) were prepared by transferring the forebrain (of known wet weight) to a glass Potter vessel to which 9 volumes ice-cold 0.25M sucrose had been added and homogenising, using a teflon pestle, by 8 ‘up and down strokes’ of a Braun Potter S motor driven homogeniser set to 900 rpm. The resulting homogenate was centrifuged at 1036×g at 4° for 10 min and the supernatant collected. The remaining pellet was resuspended, as above, in fresh ice-cold 0.25M sucrose and the centrifugation step repeated. The supernatant fractions were pooled and centrifuged at 40,000×g (average) at 4° for 15 min and the resulting pellet resuspended in the appropriate assay buffer at a concentration of 20-25 mg wet weight per ml appropriate assay buffer.
Both assays were carried out using 14 ml polypropylene test tubes to which a range of concentrations of the compounds under test were added.
Compounds under test were pre-incubated for 10 min at 30° in incubation buffer (50 mM pH 7.4 HEPES (adjusted to pH 7.4 with Tris base), 130 mM choline chloride, 5.5 mM D-glucose, 0.8 mm MgSO4 and 5 mM KCl) containing 7.5 mg original wet weight of tissue and 100 μg veratrine HCl in a final volume of 0.5 ml. […] A further 2×5 ml of ice-cold wash buffer was added to each tube and the vacuum filtration step repeated. The GF/C glass fibre filters were transferred to minivials and 4 ml Picofluor^40 liquid scintillant added using a Brandel™ deposit/dispense system. Radioactivity was measured using a Beckman Liquid Scintillation Counter.
Data are presented as mean±sem of number of experiments indicated in brackets.

Row | SMILES | % Specific (uptake of [14C]guanidine)
1 | CCn1nc(-c2cc(Cl)cc(Cl)c2Cl)c(N)nc1=N [Example 50] | 66.8%
2 | Nc1nc(N)c(-c2cc(Cl)cc(Cl)c2Cl)c(CF)n1 [BW202W92, reference compound] | 55.9%
3 | N=c1nc(N)c(-c2cc(Cl)cc(Cl)c2Cl)nn1CCF [Example 55, 5(3)-Amino-6-(2,3,5-trichlorophenyl)-2,3(2,5)-dihydro-3(5)-imino-2-(2-fluoroethyl)-1,2,4-triazine methanesulfonate] | 67.9%
4 | Cn1nc(-c2cc(Cl)cc(Cl)c2)c(N)nc1=N [Example 53, 5(3)-Amino-6-(3,5-dichlorophenyl)-2,3(2,5)-dihydro-3(5)-imino-2-methyl-1,2,4-triazine methanesulfonate] | 72.2%
5 | Nc1nnc(-c2ccccc2OC(F)(F)F)c(N)n1 [Example 51, 3,5-Diamino-6-(2-trifluoromethoxyphenyl)-1,2,4-triazine] | 72.2%
6 | CCn1nc(-c2cc(Cl)cc(Cl)c2)c(N)nc1=N [Example 54, 5(3)-Amino-6-(3,5-dichlorophenyl)-2,3(2,5)-dihydro-3(5)-imino-2-ethyl-1,2,4-triazine methanesulfonate] | 65.7%
7 | N=c1nc(N)c(-c2cccc(Cl)c2Cl)nn1CCF [Example 52, 5(3)-Amino-6-(2,3-dichlorophenyl)-2,3(2,5)-dihydro-3(5)-imino-2-(2-fluoroethyl)-1,2,4-triazine methanesulfonate] | 64.9%
8 | N=c1nc(N)c(-c2cc(Cl)cc(Cl)c2Cl)nn1CCC(F)(F)F [Example 56, 5(3)-Amino-6-(2,3,5-trichlorophenyl)-2,3(2,5)-dihydro-3(5)-imino-2-(3,3,3-trifluoropropyl)-1,2,4-triazine methanesulfonate] | 72.9%
